From publication PMC3128581
No constants are given. Whether binding was seen depends on the method and setting. For some assays here: In cells and extracts the contact can be indirect. Some binding calls cover weakened binding; strength is not graded here. For some assays here: Tags and fused reporters may be left off the sequences shown.

Chains of the proteins cited; added tags and fusions are not shown. Residues count along the entry.
UniProt P01137, residues 279-390: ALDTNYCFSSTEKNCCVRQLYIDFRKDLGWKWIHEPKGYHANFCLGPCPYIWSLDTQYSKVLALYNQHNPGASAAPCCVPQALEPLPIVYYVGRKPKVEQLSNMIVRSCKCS

T1: Fc-NRP2 (UniProt O60462)
T1 sequence: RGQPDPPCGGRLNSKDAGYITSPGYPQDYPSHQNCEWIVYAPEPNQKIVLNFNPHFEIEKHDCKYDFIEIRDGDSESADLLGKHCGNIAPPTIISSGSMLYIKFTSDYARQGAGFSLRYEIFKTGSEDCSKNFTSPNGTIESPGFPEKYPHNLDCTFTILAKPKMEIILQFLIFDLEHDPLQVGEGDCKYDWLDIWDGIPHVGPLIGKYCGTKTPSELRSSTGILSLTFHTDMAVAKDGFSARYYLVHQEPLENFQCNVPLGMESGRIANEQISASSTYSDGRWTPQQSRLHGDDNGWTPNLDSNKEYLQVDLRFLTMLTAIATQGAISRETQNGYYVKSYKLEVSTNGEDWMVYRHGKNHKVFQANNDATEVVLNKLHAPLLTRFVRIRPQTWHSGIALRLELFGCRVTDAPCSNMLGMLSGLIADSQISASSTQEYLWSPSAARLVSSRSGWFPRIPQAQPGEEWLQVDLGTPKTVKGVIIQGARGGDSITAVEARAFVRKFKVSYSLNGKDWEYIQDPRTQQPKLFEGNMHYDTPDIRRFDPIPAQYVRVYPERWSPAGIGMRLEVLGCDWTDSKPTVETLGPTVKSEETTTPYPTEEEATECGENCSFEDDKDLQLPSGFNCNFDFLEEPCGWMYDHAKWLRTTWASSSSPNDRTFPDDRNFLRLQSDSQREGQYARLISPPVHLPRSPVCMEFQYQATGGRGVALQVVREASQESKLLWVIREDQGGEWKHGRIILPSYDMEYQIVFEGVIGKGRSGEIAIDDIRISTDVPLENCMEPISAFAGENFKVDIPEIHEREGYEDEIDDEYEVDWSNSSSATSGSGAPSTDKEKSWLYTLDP

T2: TGFβ-type1 receptor (TGFRI) (human (endogenous in HT29)) (UniProt P36897)
T2 sequence: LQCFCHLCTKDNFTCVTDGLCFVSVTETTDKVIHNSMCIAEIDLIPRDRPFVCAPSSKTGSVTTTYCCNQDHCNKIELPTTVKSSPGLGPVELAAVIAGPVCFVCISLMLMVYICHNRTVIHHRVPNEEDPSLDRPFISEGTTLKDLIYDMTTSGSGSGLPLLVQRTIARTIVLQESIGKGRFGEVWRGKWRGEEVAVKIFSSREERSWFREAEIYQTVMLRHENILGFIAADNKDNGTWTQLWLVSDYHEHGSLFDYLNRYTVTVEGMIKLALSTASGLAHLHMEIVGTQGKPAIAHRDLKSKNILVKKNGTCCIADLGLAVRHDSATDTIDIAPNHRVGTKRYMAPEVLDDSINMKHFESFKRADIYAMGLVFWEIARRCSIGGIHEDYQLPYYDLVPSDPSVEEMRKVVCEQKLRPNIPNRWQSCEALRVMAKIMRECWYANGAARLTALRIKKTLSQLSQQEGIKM


Tests used:
Fc-NRP2 = target: T1, Fc-NRP2; experiment: SPR; Fc-NRP2 covalently grafted on a chemically activated self assembled monolayer of a homemade chip (7.4 +/- 0.1 femtomole/mm^2 of NRP2); analytes injected at 250 nM in PBS-Tween 0.05%, pH 7.4; Biacore 2000, 25°C, flow rate between 2 and 30 µl/min; both purified
[1] = target: T2, TGFβ-type1 receptor (TGFRI) (human (endogenous in HT29)); experiment: co-IP; HT29^NRP2 cell lysate (1% Triton X100, 100 mM NaCl, Tris-HCl pH 7.4); rabbit anti-TGFRI polyclonal antibodies or rabbit IgG, overnight at 4°C, Protein-G magnetic beads; Western blot with anti-NRP2

| binding (Fc-NRP2) | binding [1] | Molecule |
| --- | --- | --- |
| binds |  | transforming growth factor β1 (TGF-β1) (from UniProt P01137 279-390) (ligand) |
|  | binds | neuropilin-2 (NRP2) expressed in HT29^NRP2 cells (receptor, UniProt O60462 21-931) RGQPDPPCGGRLNSKDAGYITSPGYPQDYPSHQNCEWIVYAPEPNQKIVLNFNPHFEIEKHDCKYDFIEIRDGDSESADLLGKHCGNIAPPTIISSGSMLYIKFTSDYARQGAGFSLRYEIFKTGSEDCSKNFTSPNGTIESPGFPEKYPHNLDCTFTILAKPKMEIILQFLIFDLEHDPLQVGEGDCKYDWLDIWDGIPHVGPLIGKYCGTKTPSELRSSTGILSLTFHTDMAVAKDGFSARYYLVHQEPLENFQCNVPLGMESGRIANEQISASSTYSDGRWTPQQSRLHGDDNGWTPNLDSNKEYLQVDLRFLTMLTAIATQGAISRETQNGYYVKSYKLEVSTNGEDWMVYRHGKNHKVFQANNDATEVVLNKLHAPLLTRFVRIRPQTWHSGIALRLELFGCRVTDAPCSNMLGMLSGLIADSQISASSTQEYLWSPSAARLVSSRSGWFPRIPQAQPGEEWLQVDLGTPKTVKGVIIQGARGGDSITAVEARAFVRKFKVSYSLNGKDWEYIQDPRTQQPKLFEGNMHYDTPDIRRFDPIPAQYVRVYPERWSPAGIGMRLEVLGCDWTDSKPTVETLGPTVKSEETTTPYPTEEEATECGENCSFEDDKDLQLPSGFNCNFDFLEEPCGWMYDHAKWLRTTWASSSSPNDRTFPDDRNFLRLQSDSQREGQYARLISPPVHLPRSPVCMEFQYQATGGRGVALQVVREASQESKLLWVIREDQGGEWKHGRIILPSYDMEYQIVFEGVIGKGRSGEIAIDDIRISTDVPLENCMEPISAFAGENFKVDIPEIHEREGYEDEIDDEYEVDWSNSSSATSGSGAPSTDKEKSWLYTLDPILITIIAMSSLGVLLGATCAGLLLYCTCSYSGLSSRSCTTLENYNFELYDGLKHKVKMNHQKCCSEA |
